The supplement of paper PMC4604168 (melanoma cell lines)
The other results are listed elsewhere or left out. Single values are uncertain, as repeats are few or missing.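 Cells were imaged in 1,536-well plates, and nuclei stained with an antibody against cleaved PARP were counted against all DNA-stained nuclei to give the apoptosis fraction. Screening doses were chosen to leave most cells alive, and resting and induced cleaved-PARP levels differ strongly between cell lines.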

Legend:
Assay in all cases: cleaved PARP positive nuclei fraction relative to DMSO control; melanoma cells; higher = more apoptosis
Details in all cases: library dose: low library concentration; 72 h
MZ2-MEL = test system: MZ2-MEL
MeWo = test system: MeWo
RPMI7951 = test system: RPMI7951
RVH-421 = test system: RVH-421
SkMel28 = test system: SkMel28
SkMel2 = test system: SkMel2
SkMel30 = test system: SkMel30
SkMel5 = test system: SkMel5
UACC257 = test system: UACC257
UACC62 = test system: UACC62

SMILES | cleaved PARP positive nuclei fraction (MZ2-MEL) [%] | cleaved PARP positive nuclei fraction (MeWo) [%] | cleaved PARP positive nuclei fraction (RPMI7951) [%] | cleaved PARP positive nuclei fraction (RVH-421) [%] | cleaved PARP positive nuclei fraction (SkMel28) [%] | cleaved PARP positive nuclei fraction (SkMel2) [%] | cleaved PARP positive nuclei fraction (SkMel30) [%] | cleaved PARP positive nuclei fraction (SkMel5) [%] | cleaved PARP positive nuclei fraction (UACC257) [%] | cleaved PARP positive nuclei fraction (UACC62) [%]
COc1ccc(C2=N[C@@H](c3ccc(Cl)cc3)[C@@H](c3ccc(Cl)cc3)N2C(=O)N2CCNC(=O)C2)c(OC(C)C)c1 [Nutlin-3] + COc1cc2c(Oc3ccc4[nH]c(C)cc4c3F)ncnc2cc1OCCCN1CCCC1 [cediranib] (first compound 0.1 µM, partner dose 0.4 µM) | 39.4 | 68.1 | 120 | 30.6 | 133 | 77.4 | 69.1 | 126 | 133 | 53.1
C[C@]1(O)C[C@@H](c2nc(-c3ccc4ccc(-c5ccccc5)nc4c3)c3c(N)nccn32)C1 + CC(C)(C)c1cnc(CSc2cnc(NC(=O)C3CCNCC3)s2)o1 [SNS-032] (first compound 0.4 µM, partner dose 0.01 µM) | 88.4 | 35.4 | 85.2 | 49.1 | 75.3 | 121 | 71.8 | 36.9 | 138 | 175
CN(c1ncccc1CNc1nc(Nc2ccc3c(c2)CC(=O)N3)ncc1C(F)(F)F)S(C)(=O)=O + c1cc(-c2cnn3cc(-c4ccc(OCCN5CCCCC5)cc4)cnc23)ccn1 [Dorsomorphin] (first compound 0.08 µM, partner dose 0.4 µM) | 113 | 78.1 | 41.6 | 133 | 140 | 47.8 | 114 | 55.4 | 208 | 209
C[C@]1(O)C[C@@H](c2nc(-c3ccc4ccc(-c5ccccc5)nc4c3)c3c(N)nccn32)C1 + COc1cc(N2CCC(N3CCN(C)CC3)CC2)ccc1Nc1ncc(Cl)c(Nc2ccccc2S(=O)(=O)C(C)C)n1 [NVP-TAE684] (first compound 0.4 µM, partner dose 0.08 µM) | 75 | 22.1 | 33.9 | 42.5 | 98.1 | 91.6 | 207 | 76.9 | 545 | 210
Cn1cnc2c(F)c(Nc3ccc(Br)cc3Cl)c(C(=O)NOCCO)cc21 [selumetinib] + CC(C)CCN1c2nc(Nc3cc(F)c(O)c(F)c3)ncc2N(C)C(=O)C1C [BID1870] (first compound 0.015 µM, partner dose 0.2 µM) | 146 | 154 | 29.5 | 110 | 183 | 198 | 37.4 | 143 | 129 | 258
CC1(C)CCC(c2ccc(Cl)cc2)=C(CN2CCN(c3ccc(C(=O)NS(=O)(=O)c4ccc(N[C@H](CCN5CCOCC5)CSc5ccccc5)c(S(=O)(=O)C(F)(F)F)c4)cc3)CC2)C1 + COc1ccc(-c2ccc3c(N4CCOCC4)nc(N4C[C@@H](C)O[C@@H](C)C4)nc3n2)cc1CO [KU0063794] (first compound 0.4 µM, partner dose 0.02 µM) | 281 | 321 | 176 | 62.4 | 70.3 | 157 | 43.6 | 284 | 123 | 152
CN(c1ncccc1CNc1nc(Nc2ccc3c(c2)CC(=O)N3)ncc1C(F)(F)F)S(C)(=O)=O + COc1cc(Nc2ncc(F)c(Nc3ccc4c(n3)NC(=O)C(C)(C)O4)n2)cc(OC)c1OC [Tamatinib] (first compound 0.08 µM, partner dose 0.4 µM) | 239 | 54.2 | 296 | 132 | 73.4 | 84.7 | 77.1 | 72.1 | 140 | 140
CN(c1ncccc1CNc1nc(Nc2ccc3c(c2)CC(=O)N3)ncc1C(F)(F)F)S(C)(=O)=O + CC1(C)NC(=O)N(c2ccc([N+](=O)[O-])c(C(F)(F)F)c2)C1=O [nilutamide] (first compound 0.08 µM, partner dose 1 µM) | 121 | 152 | 253 | 76.1 | 60.3 | 82.4 | 56.5 | 98.1 | 83.2 | 118
CC(=O)O[C@@]12CO[C@@H]1C[C@H](O)[C@@]1(C)C(=O)[C@H](O)C3=C(C)[C@@H](OC(=O)[C@H](O)[C@@H](NC(=O)OC(C)(C)C)c4ccccc4)C[C@@](O)([C@@H](OC(=O)c4ccccc4)[C@H]21)C3(C)C [Docetaxel] + NCC(=O)Nc1ccc(-n2nc(C(F)(F)F)cc2-c2ccc3c(ccc4ccccc43)c2)cc1 [OSU03012] (first compound 0.0001 µM, partner dose 1 µM) | 624 | 657 | 486 | 139 | 421 | 817 | 176 | 572 | 510 | 186
CN(c1ncccc1CNc1nc(Nc2ccc3c(c2)CC(=O)N3)ncc1C(F)(F)F)S(C)(=O)=O + CCCCCCCCCCCC1=C(O)C(=O)C=C(O)C1=O [Embelin] (first compound 0.08 µM, partner dose 1.2 µM) | 104 | 126 | 46.4 | 142 | 81.6 | 114 | 65.3 | 81.1 | 95.4 | 51.8
